Source: PubChem BioAssay AID1259405 (NCATS, 2018)

Screen: 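Mouse-designed siRNAs used to find CHO productivity engineering targets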 (primary screen)
System: Chinese hamster CHO-K1 ovary cells with stable secreted eGFP expression
Knock-down reagent: single siRNA against mouse genes, 0.8 pmol siRNA per well (2 µl of 400 nM stock)
Duration: 3 days
Read-out: 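Percent of the per-plate non-targeting control median for intracellular GFP per well by laser scanning cytometry and for cell viability by ATP luminescence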
Reading the numbers: GFP, % of control: higher = more GFP per well, higher productivity; viability (ATP), % of control: higher = more viable cells (more ATP)
Hit rule: 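a knock-down is called active if GFP reaches 120% or more of non-targeting control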
In all, the deposit lists about 50,000 reagents; this is a random part of them. In the full data, about 4,000 (8%) were called active. 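Mouse siRNA library applied to hamster cells; one well for each siRNA.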 Entries without a mark were called inactive. Reagents against one gene are numbered here.

target gene	siRNA no.	GFP, % of control	viability (ATP), % of control
Vti1a	1	90	68.2
Vti1a	2	92	89.9
Vti1a	3	90.5	73.5
Or5b102	1	83.8	47.5
Or5b102	2	98	94.1
Or5b102	3	50.6	79.1
Zmym3	1	139 (active)	61.2
Zmym3	2	81.8	73.1
Zmym3	3	96	113
M6pr	1	140 (active)	104
M6pr	2	115	69.4
Zdhhc15	1	64.5	51.1
Zdhhc15	2	89.9	85.5
Zdhhc15	3	69.4	67.4
Cts8	1	92.6	74.7
Cts8	2	75.4	71.8
Cts8	3	60.8	81.6

Just “viability (ATP), % of control” (4 entries from above):
Zdhhc15 #3	67.4
Cts8 #1	74.7
Cts8 #2	71.8
Cts8 #3	81.6

The list goes on.
target gene	siRNA no.	GFP, % of control	viability (ATP), % of control
1700020L24Rik	1	79.2	72.7
1700020L24Rik	2	80.3	88.2
1700020L24Rik	3	86.4	67.7
Snrnp48	1	61.1	93
Snrnp48	2	109	91.1
Snrnp48	3	188 (active)	162
Eps8	1	54.1	64.1
Eps8	2	126 (active)	81.2
Pias4	1	84.5	32.4
Pias4	2	98.2	89.8
Pias4	3	69.2	106
Cc2d2a	1	52.2	80.5
Cc2d2a	2	116	71.3
Cc2d2a	3	126 (active)	136
Mutyh	1	124 (active)	116
Mutyh	2	74.1	76.8
Mutyh	3	98.3	56.1
